Data: the supplement of paper PMC4604168 (melanoma cell lines)
This is one part of the list. Many values rest on one well or one pass, so single values are uncertain.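 Cells were imaged in 1,536-well plates, and nuclei stained with an antibody against cleaved PARP were counted against all DNA-stained nuclei to give the apoptosis fraction. Screening doses were chosen to leave most cells alive, and resting and induced cleaved-PARP levels differ strongly between cell lines.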

Legend:
Experiment in all cases: cleaved PARP positive nuclei fraction relative to DMSO control; melanoma cells; higher = more apoptosis
Details in all cases: library dose: low library concentration; 72 h
MZ2-MEL = system: MZ2-MEL
MeWo = system: MeWo
RPMI7951 = system: RPMI7951
RVH-421 = system: RVH-421
SkMel28 = system: SkMel28
SkMel2 = system: SkMel2
SkMel30 = system: SkMel30
SkMel5 = system: SkMel5
UACC257 = system: UACC257
UACC62 = system: UACC62
WM115 = system: WM115
WM1716 = system: WM1716
WM1745 = system: WM1745
WM3526 = system: WM3526
WM3619 = system: WM3619
WM451Lu = system: WM451Lu

SMILES | cleaved PARP positive nuclei fraction (MZ2-MEL) [%] | cleaved PARP positive nuclei fraction (MeWo) [%] | cleaved PARP positive nuclei fraction (RPMI7951) [%] | cleaved PARP positive nuclei fraction (RVH-421) [%] | cleaved PARP positive nuclei fraction (SkMel28) [%] | cleaved PARP positive nuclei fraction (SkMel2) [%] | cleaved PARP positive nuclei fraction (SkMel30) [%] | cleaved PARP positive nuclei fraction (SkMel5) [%] | cleaved PARP positive nuclei fraction (UACC257) [%] | cleaved PARP positive nuclei fraction (UACC62) [%] | cleaved PARP positive nuclei fraction (WM115) [%] | cleaved PARP positive nuclei fraction (WM1716) [%] | cleaved PARP positive nuclei fraction (WM1745) [%] | cleaved PARP positive nuclei fraction (WM3526) [%] | cleaved PARP positive nuclei fraction (WM3619) [%] | cleaved PARP positive nuclei fraction (WM451Lu) [%]
CN(c1ncccc1CNc1nc(Nc2ccc3c(c2)CC(=O)N3)ncc1C(F)(F)F)S(C)(=O)=O + O=C(O)C(=O)Nc1sc2c(c1C(=O)O)CCNC2 [TCS401] (first compound 0.08 µM, partner dose 1.66667 µM) | 133 | 71.5 | 38.4 | 34.8 | 275 | 140 | 42.9 | 105 | 870 | 123 | 125 | 344 | 131 | 66.6 | 94.7 | 258
CCCCCCCCc1ccc(CCC(N)(CO)CO)cc1 [fingolimod] + c1cc(-c2cnn3cc(-c4ccc(OCCN5CCCCC5)cc4)cnc23)ccn1 [Dorsomorphin] (first compound 2 µM, partner dose 0.4 µM) | 70 | 73.8 | 40.5 | 425 | 260 | 42.8 | 68.1 | 42 | 165 | 163 | 206 | 49.6 | 102 | 76.1 | 97.1 | 37
C[C@@H](N)c1ccc(C(=O)Nc2ccnc3[nH]ccc23)cc1 + COC(=O)c1sccc1S(=O)(=O)Nc1ccc(Nc2ccccc2)cc1OC [GSK0660] (first compound 0.4 µM, partner dose 1 µM) | 199 | 126 | 39 | 341 | 177 | 73.3 | 116 | 189 | 78.7 | 176 | 53.2 | 53.8 | 96.1 | 66.4 | 94.5 | 146
NC1(c2ccc(-c3nc4ccn5c(=O)[nH]nc5c4cc3-c3ccccc3)cc2)CCC1 + CN(NC(=O)CC(=O)NN(C)C(=S)c1ccccc1)C(=S)c1ccccc1 [STA4783] (first compound 0.4 µM, partner dose 0.006 µM) | 156 | 61.2 | 53.5 | 99.7 | 157 | 16.4 | 67.2 | 211 | 32.6 | 85.2 | 263 | 338 | 505 | 85 | 138 | 69
NC(=O)c1ccc(N(C(N)=O)c2c(F)cccc2F)nc1-c1ccc(F)cc1F + O=c1cc(-c2cccc3c2Sc2ccccc2S3)oc(N2CCOCC2)c1 [KU55933] (first compound 0.4 µM, partner dose 1 µM) | 152 | 113 | 109 | 98.9 | 181 | 72.1 | 55.7 | 33.4 | 147 | 99.9 | 107 | 23.6 | 76.8 | 94.9 | 89.4 | 105
CCCCCCCCc1ccc(CCC(N)(CO)CO)cc1 [fingolimod] + CN(C)S(=O)(=O)c1ccc2c(c1)/C(=C/c1cc3c([nH]1)CCCC3)C(=O)N2 [SU6656] (first compound 2 µM, partner dose 0.4 µM) | 39.2 | 193 | 238 | 102 | 128 | 46.7 | 65.2 | 68.5 | 41.1 | 125 | 91.4 | 112 | 174 | 76.7 | 279 | 81.8
CC(=O)O[C@@]12CO[C@@H]1C[C@H](O)[C@@]1(C)C(=O)[C@H](O)C3=C(C)[C@@H](OC(=O)[C@H](O)[C@@H](NC(=O)OC(C)(C)C)c4ccccc4)C[C@@](O)([C@@H](OC(=O)c4ccccc4)[C@H]21)C3(C)C [Docetaxel] + O=C(O)c1ccc(-c2c[nH]c3ncc(-c4ccccc4)cc23)cc1C1CCCC1 [GSK650394] (first compound 0.0001 µM, partner dose 0.16 µM) | 559 | 482 | 187 | 154 | 519 | 628 | 187 | 51.7 | 321 | 364 | 333 | 484 | 167 | 103 | 150 | 139
CC(=O)O[C@@]12CO[C@@H]1C[C@H](O)[C@@]1(C)C(=O)[C@H](O)C3=C(C)[C@@H](OC(=O)[C@H](O)[C@@H](NC(=O)OC(C)(C)C)c4ccccc4)C[C@@](O)([C@@H](OC(=O)c4ccccc4)[C@H]21)C3(C)C [Docetaxel] + CCCCCCCCCCCC1=C(O)C(=O)C=C(O)C1=O [Embelin] (first compound 0.0001 µM, partner dose 1.2 µM) | 288 | 410 | 385 | 125 | 631 | 542 | 210 | 191 | 480 | 456 | 381 | 594 | 191 | 262 | 132 | 365
CS(=O)(=O)c1ccc(C(=O)Nc2ccc(Cl)c(-c3ccccn3)c2)c(Cl)c1 [vismodegib] + CC(C)(C)c1cnc(CSc2cnc(NC(=O)C3CCNCC3)s2)o1 [SNS-032] (first compound 1 µM, partner dose 0.01 µM) | 56.2 | 135 | 42.3 | 57.8 | 85.7 | 95.4 | 67.3 | 109 | 325 | 173 | 89.7 | 216 | 95.2 | 36.8 | 99.3 | 64.2

Complete entries, quoted from the list. Order of values: cleaved PARP positive nuclei fraction (MZ2-MEL) [%]	cleaved PARP positive nuclei fraction (MeWo) [%]	cleaved PARP positive nuclei fraction (RPMI7951) [%]	cleaved PARP positive nuclei fraction (RVH-421) [%]	cleaved PARP positive nuclei fraction (SkMel28) [%]	cleaved PARP positive nuclei fraction (SkMel2) [%]	cleaved PARP positive nuclei fraction (SkMel30) [%]	cleaved PARP positive nuclei fraction (SkMel5) [%]	cleaved PARP positive nuclei fraction (UACC257) [%]	cleaved PARP positive nuclei fraction (UACC62) [%]	cleaved PARP positive nuclei fraction (WM115) [%]	cleaved PARP positive nuclei fraction (WM1716) [%]	cleaved PARP positive nuclei fraction (WM1745) [%]	cleaved PARP positive nuclei fraction (WM3526) [%]	cleaved PARP positive nuclei fraction (WM3619) [%]	cleaved PARP positive nuclei fraction (WM451Lu) [%]
CCCCCCCCc1ccc(CCC(N)(CO)CO)cc1 [fingolimod] + CN(C)S(=O)(=O)c1ccc2c(c1)/C(=C/c1cc3c([nH]1)CCCC3)C(=O)N2 [SU6656] (first compound 2 µM, partner dose 0.4 µM) is entered as 39.2	193	238	102	128	46.7	65.2	68.5	41.1	125	91.4	112	174	76.7	279	81.8
CCCCCCCCc1ccc(CCC(N)(CO)CO)cc1 [fingolimod] + c1cc(-c2cnn3cc(-c4ccc(OCCN5CCCCC5)cc4)cnc23)ccn1 [Dorsomorphin] (first compound 2 µM, partner dose 0.4 µM) is entered as 70	73.8	40.5	425	260	42.8	68.1	42	165	163	206	49.6	102	76.1	97.1	37
